We go through two molecules from PMC1716177.

By UniProt entry, the sequences of proteins in these tests, tags left out.
UniProt P04150: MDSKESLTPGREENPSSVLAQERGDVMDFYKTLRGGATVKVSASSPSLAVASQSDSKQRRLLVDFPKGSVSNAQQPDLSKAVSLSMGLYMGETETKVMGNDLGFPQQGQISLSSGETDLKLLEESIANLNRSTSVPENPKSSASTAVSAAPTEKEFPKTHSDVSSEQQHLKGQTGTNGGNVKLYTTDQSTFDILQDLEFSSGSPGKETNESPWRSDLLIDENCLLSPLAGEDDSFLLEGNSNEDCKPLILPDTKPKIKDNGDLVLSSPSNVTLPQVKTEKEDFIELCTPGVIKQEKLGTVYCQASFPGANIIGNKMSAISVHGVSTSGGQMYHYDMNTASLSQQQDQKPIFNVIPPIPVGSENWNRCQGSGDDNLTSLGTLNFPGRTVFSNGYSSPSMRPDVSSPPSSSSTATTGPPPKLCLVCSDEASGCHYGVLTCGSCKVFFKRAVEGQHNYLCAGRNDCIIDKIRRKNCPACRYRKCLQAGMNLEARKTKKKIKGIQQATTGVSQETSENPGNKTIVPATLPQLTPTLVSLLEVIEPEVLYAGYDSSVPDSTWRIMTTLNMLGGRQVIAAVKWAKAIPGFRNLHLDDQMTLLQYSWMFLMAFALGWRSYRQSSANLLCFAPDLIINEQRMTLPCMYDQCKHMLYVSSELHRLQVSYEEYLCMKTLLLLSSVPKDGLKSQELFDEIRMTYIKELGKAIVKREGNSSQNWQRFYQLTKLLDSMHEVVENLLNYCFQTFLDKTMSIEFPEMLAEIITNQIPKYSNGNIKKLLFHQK

For this assay, the target named is Glucocorticoid receptor (GR) (UniProt P04150). Briefly: co-IP; lysates of transfected Saos-2 cells (50 mM Tris pH 7.5, 150 mM NaCl, 0.5% NP40) immunoprecipitated overnight with anti-GR polyclonal antibody E-20 on protein A agarose, blotted with anti-HA or anti-Flag; cells untreated or treated with dexamethasone (100 nM) and/or MG132 (30 μM); binding most evident with MG132.

These are yes or no findings as the source states them, for the method shown. Binding seen in cells or lysates may run through a third protein. Some entries that bind do so weakly or less than the wild type. Where a sequence is shown, tags or fusion partners need not be part of it.

On to “HA-tagged p53 wild type (from UniProt P04637 1-393)”, for which the binding entry is “binds”.

B1: HA-tagged human p73β (protein, UniProt O15350-2 1-499)
chain: MAQSTATSPDGGTTFEHLWSSLEPDSTYFDLPQSSRGNNEVVGGTDSSMDVFHLEGMTTSVMAQFNLLSSTMDQMSSRAASASPYTPEHAASVPTHSPYAQPSSTFDTMSPAPVIPSNTDYPGPHHFEVTFQQSSTAKSATWTYSPLLKKLYCQIAKTCPIQIKVSTPPPPGTAIRAMPVYKKAEHVTDVVKRCPNHELGRDFNEGQSAPASHLIRVEGNNLSQYVDDPVTGRQSVVVPYEPPQVGTEFTTILYNFMCNSSCVGGMNRRPILIIITLEMRDGQVLGRRSFEGRICACPGRDRKADEDHYREQQALNESSAKNGAASKRAFKQSPPAVPALGAGVKKRRHGDEDTYYLQVRGRENFEILMKLKESLELMELVPQPLVDSYRQQQQLLQRPSHLQPPSYGPVLSPMNKVHGGMNKLPSVNQLVGQPPPHSSAATPNLGPVGPGMLNNHGHAVPANGEMSSSHSAQSMVSGSHCTPPPPYHADPSLVRTWGP
For B1, the binding result is “binds”.
